Values of other authors in patent publication EP0266640A2, “A pharmaceutical compound containing nifedipine” (Euro-Celtique S.A., priority 1986, dated 1988).

Settings: cited from earlier work

For `COC(=O)C1=C(C)NC(C)=C(C(=O)OC)C1c1ccccc1[N+](=O)[O-]` [Nifedipine, 1,4-dihydro-2,6-dimethyl-4-(2-nitrophenyl)-3,5-pyridine carboxylic acid dimethyl ester], the water solubility is given as “approx. 6 mg/l”.
